Source: patent US20220249597A1, “MIF INHIBITORS AND METHODS OF USE THEREOF” (The Johns Hopkins University, priority 2016, published 2022)
These are yes or no findings as the source states them, for the method shown. In cells and extracts the contact can be indirect. Some binding calls cover weakened binding; strength is not graded here. Sequences can lack the tags named with a protein.

Sequences of proteins named here, by UniProt entry; tags and fusion partners are left off. Residues count along the entry.
UniProt O95831, residues 55-613: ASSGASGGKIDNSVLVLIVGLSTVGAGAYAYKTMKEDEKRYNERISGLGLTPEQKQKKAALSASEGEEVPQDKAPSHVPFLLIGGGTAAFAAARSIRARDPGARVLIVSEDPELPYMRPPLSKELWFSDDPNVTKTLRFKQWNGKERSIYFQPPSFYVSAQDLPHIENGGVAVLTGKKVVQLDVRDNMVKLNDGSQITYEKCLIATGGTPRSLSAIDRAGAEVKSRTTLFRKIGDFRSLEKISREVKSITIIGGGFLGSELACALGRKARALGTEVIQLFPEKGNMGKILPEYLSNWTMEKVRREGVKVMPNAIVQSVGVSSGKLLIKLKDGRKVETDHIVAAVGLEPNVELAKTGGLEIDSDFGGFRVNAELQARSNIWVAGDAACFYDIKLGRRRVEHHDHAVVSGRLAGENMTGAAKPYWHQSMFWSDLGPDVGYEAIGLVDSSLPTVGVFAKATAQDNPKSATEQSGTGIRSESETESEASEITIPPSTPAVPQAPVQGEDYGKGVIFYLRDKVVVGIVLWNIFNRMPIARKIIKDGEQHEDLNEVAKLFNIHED

Experiments:
[1] = target: endogenous AIF (apoptosis-inducing factor) in HeLa cell lysates (human) (UniProt O95831); assay: GST pull-down from HeLa cell lysate, western blot
[2] = target: endogenous AIF (apoptosis-inducing factor) in HeLa cell lysates (human) (UniProt O95831); assay: GST pull-down on glutathione beads

| binding [1] | binding [2] | Binder |
| --- | --- | --- |
| binds | – | GST-MIF E22D (protein, not shown: a dimerising Fc or GST; small tags and cut ends) PMFIVNTNVPRASVPDGFLSDLTQQLAQATGKPPQYIAVHVVPDQLMAFGGSSEPCALCSLHSIGKIGGAQNRSYSKLLCGLLAERLRISPDRVYINYYDMNAANVGWNNSTFA |
| binds | – | GST-MIF C57A; C60A (protein, not shown: a dimerising Fc or GST; small tags and cut ends) PMFIVNTNVPRASVPDGFLSELTQQLAQATGKPPQYIAVHVVPDQLMAFGGSSEPAALASLHSIGKIGGAQNRSYSKLLCGLLAERLRISPDRVYINYYDMNAANVGWNNSTFA |
| binds | – | GST-MIF E22Q (protein, not shown: a dimerising Fc or GST; small tags and cut ends) PMFIVNTNVPRASVPDGFLSQLTQQLAQATGKPPQYIAVHVVPDQLMAFGGSSEPCALCSLHSIGKIGGAQNRSYSKLLCGLLAERLRISPDRVYINYYDMNAANVGWNNSTFA |
| binds | binds | wild type GST-MIF (protein, human, UniProt P14174 1-115, looked up, not shown: a dimerising Fc or GST) MPMFIVNTNVPRASVPDGFLSELTQQLAQATGKPPQYIAVHVVPDQLMAFGGSSEPCALCSLHSIGKIGGAQNRSYSKLLCGLLAERLRISPDRVYINYYDMNAANVGWNNSTFA |
